Results are given in words; binding and its absence hold for the method and conditions named. Binding seen in cells or lysates may run through a third protein. Some results given as binding are weak or reduced against the parent protein; the word gives no strength.
What was measured:
[1] = molecular target: Myc-tagged latency associated nuclear antigen (LANA) of KSHV, from pA3M-LANA (Kaposi's sarcoma-associated herpesvirus (KSHV, human herpesvirus-8)) (UniProt Q9QR71); assay: co-IP; BJAB and HEK-293 cells co-transfected with pCDNA3.1-HAChk2 and pA3M-LANA; lysis in RIPA buffer (0.5% NP-40, 10 mM Tris pH 7.5, 2 mM EDTA, 150 mM NaCl); immunoprecipitation with anti-Myc, blot with anti-HA
[2] = molecular target: GST-Chk2 truncation, amino acids 207 to 457 (carboxy-terminal region) (UniProt O96017); assay: pull-down; GST-Chk2 truncations on glutathione-sepharose beads; nuclear extract of KSHV-positive BC3 cells, precleared with beads and GST-bound beads; overnight at 4°C; LANA detected by immunoblotting; only the target purified
[3] = molecular target: GST-Chk2 truncation, amino acids 207 to 457 (carboxy-terminal region) (UniProt O96017); assay: pull-down; GST-Chk2 truncations on glutathione-sepharose beads; [35S]-labelled in vitro translated LANA, precleared; binding buffer 1x PBS, 0.1% NP-40, 0.5 mM DTT, 10% glycerol; 24 hours at 4°C; SDS-PAGE; only the target purified

Sequences of proteins named here, by UniProt entry; tags and fusion partners are left off. A change or cut given only in a name is not applied to a line headed by its entry. Residues count along the entry.
UniProt Q9QR71: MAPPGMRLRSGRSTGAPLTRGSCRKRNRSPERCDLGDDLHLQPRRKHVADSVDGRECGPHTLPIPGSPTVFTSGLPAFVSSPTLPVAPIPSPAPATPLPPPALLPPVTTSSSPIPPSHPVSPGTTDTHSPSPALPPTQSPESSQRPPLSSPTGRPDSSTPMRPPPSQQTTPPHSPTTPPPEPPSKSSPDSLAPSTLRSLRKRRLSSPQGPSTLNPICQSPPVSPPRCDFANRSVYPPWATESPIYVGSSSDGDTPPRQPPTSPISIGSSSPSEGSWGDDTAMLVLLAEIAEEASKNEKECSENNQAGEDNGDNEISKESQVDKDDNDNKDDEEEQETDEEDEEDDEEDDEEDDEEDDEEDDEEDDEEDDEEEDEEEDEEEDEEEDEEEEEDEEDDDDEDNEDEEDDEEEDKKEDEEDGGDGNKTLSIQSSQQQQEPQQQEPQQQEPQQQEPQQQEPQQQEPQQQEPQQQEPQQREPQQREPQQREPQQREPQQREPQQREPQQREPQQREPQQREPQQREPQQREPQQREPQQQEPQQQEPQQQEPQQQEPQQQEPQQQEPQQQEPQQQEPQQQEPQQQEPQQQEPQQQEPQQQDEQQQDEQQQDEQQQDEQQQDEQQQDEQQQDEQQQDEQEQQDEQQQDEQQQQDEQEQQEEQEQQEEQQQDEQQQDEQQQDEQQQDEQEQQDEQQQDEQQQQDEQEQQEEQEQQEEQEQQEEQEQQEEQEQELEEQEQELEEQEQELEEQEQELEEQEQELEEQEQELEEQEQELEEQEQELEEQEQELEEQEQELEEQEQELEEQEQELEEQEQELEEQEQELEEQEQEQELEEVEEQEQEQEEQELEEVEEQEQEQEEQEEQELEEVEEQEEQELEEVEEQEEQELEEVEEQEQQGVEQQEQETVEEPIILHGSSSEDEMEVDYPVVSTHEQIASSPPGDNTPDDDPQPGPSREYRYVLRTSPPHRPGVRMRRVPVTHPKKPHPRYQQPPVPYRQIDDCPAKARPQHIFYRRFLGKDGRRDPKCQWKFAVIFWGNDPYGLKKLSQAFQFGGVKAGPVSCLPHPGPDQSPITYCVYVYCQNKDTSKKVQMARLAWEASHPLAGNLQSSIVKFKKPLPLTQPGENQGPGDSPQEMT
UniProt O96017: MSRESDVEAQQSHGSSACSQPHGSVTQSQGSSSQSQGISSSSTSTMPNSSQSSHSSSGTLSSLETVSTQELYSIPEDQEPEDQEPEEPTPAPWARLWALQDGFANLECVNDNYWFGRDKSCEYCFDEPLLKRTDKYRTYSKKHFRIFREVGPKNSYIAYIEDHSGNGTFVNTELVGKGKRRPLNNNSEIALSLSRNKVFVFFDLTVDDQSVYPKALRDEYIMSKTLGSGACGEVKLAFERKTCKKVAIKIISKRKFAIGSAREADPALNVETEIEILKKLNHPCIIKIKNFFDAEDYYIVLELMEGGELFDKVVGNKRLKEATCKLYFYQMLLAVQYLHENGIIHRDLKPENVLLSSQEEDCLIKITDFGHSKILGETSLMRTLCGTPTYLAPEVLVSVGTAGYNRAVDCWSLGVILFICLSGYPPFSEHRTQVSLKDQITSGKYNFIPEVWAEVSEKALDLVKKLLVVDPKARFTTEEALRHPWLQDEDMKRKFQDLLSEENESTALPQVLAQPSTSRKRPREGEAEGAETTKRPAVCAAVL
GST-Chk2 truncation, amino acids 207 to 457 (carboxy-terminal region): residues 207-457 of O96017

In the case of “HA-tagged Chk2, from pCDNA3.1-HAChk2 (from UniProt O96017 1-543)”, the binding [1] is reported as “binds”.

“LANA in nuclear extract of KSHV-positive BC3 cells (from UniProt Q9QR71 1-1129)” was tested, and the binding [2] was “no binding”.

In the case of “in vitro translated [35S]-labelled LANA, from the full-length pA3M-LANA clone (from UniProt Q9QR71 1-1129)”, the binding [3] is reported as “no binding”.

Source: publication PMC4074033
